PubChem BioAssay AID504808 | Drosophila RNAi Screening Center, 2011

Screen: 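Genes whose loss lifts activity of an E2F-responsive reporter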 (primary screen)
Cells: Drosophila S2 cells
Reagents: long dsRNA against Drosophila genes
Read-out: 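Firefly luciferase driven by E2F sites, normalised to Renilla luciferase on the same minimal promoter, measured by plate reader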
Scale: E2F firefly: higher = more E2F reporter activity; Renilla normaliser: higher = more normaliser reporter signal
Hit rule: 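Called active if the normalised E2F reporter went up by over 50%; the cutoff is arbitrary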
The deposit covers about 21,000 reagents; shown is an unselected part of those with a known target gene and a result. Over the whole deposit, 18 (0.084%) are marked active. 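Raw counts without plate normalisation, one of two replicates; the ratio scores behind the calls were not deposited.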 Names joined by + are all predicted targets of the reagent. Reagent sequences are not shown. Not given: the amount of reagent, the time to read-out.

gene	amplicon	E2F firefly, rep 1	Renilla normaliser, rep 1	Call
CG43325	DRSC04157	1.05e5	4147	inactive
pix	DRSC10533	81596	4405	inactive
CG32536 + CG32537	DRSC20074	1.29e5	5144	inactive
CG12213	DRSC14478	68196	2945	inactive
AttD	DRSC16272	49561	3416	inactive
CG5770	DRSC06954	72889	2987	inactive
car	DRSC20316	1.62e5	5753	inactive
CaBP1	DRSC01984	74184	3560	inactive
CG10650	DRSC02085	90060	4019	inactive
CG15252	DRSC17981	1.20e5	5416	inactive
Mcm6	DRSC18680	9309	764	inactive
eIF3d2	DRSC15651	72321	3392	inactive

Next part; the last 2 above are carried over.
gene	amplicon	E2F firefly, rep 1	Renilla normaliser, rep 1	Call
Mcm6	DRSC18680	9309	764	inactive
eIF3d2	DRSC15651	72321	3392	inactive
CAH7	DRSC15524	1.45e5	6323	inactive
CG7239	DRSC03038	68368	3272	inactive
Spc105R	DRSC11663	93912	8612	inactive
galla-2	DRSC10936	1.15e5	6022	inactive
CG10845	DRSC14272	1.05e5	6079	inactive
CG6429	DRSC06986	1.30e5	4465	inactive
CG15753 (retired record)	DRSC19718	46811	3611	inactive
CG32816	DRSC17337	83248	2488	inactive
Brf	DRSC13228	82323	2592	inactive
Brf	DRSC14166	1.12e5	6900	inactive
Brf	DRSC14167	1.24e5	7047	inactive
Vinc	DRSC18728	1908	920	inactive
CG31115	DRSC13692	84262	2935	inactive
Ddx56	DRSC20567	1.26e5	9307	inactive
ND-20L	DRSC15414	1.37e5	5711	inactive
CG12301	DRSC09875	78288	3699	inactive
Ilp6	DRSC17906	1.14e5	5456	inactive
rha	DRSC17044	1792	952	inactive
CG14456	DRSC11713	1.27e5	6823	inactive
Ocrl	DRSC18576	1854	1004	inactive
CG13658	DRSC14659	1.13e5	6144	inactive
CG31730	DRSC01308	1.41e5	6390	inactive
